These are yes or no findings as the source states them, for the method shown. Some results given as binding are weak or reduced against the parent protein; the word gives no strength.

The chains behind the UniProt entries cited, without tags or fusion partners. Residues count along the entry.
UniProt Q07011, residues 24-186: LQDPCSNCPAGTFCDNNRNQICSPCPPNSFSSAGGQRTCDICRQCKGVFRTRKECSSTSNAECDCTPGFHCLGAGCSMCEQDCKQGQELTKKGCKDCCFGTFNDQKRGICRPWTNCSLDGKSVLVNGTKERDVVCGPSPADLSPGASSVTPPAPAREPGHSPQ
UniProt P41273: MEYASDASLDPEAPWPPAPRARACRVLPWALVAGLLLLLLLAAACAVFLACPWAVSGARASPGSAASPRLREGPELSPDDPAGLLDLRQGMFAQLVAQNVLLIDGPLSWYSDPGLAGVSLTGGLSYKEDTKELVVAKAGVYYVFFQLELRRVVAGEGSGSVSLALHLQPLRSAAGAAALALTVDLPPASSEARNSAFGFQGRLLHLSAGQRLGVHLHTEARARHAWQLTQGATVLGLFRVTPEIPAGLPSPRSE

In this assay the target is recombinant 41-BB (UniProt Q07011). Put plainly: flow cytometry, recombinant 41-BB on engineered red blood cells.

For the substance “41-BB-L expressed on RCTs (RCT-41-BB-L) (from UniProt P41273 1-254) (ligand)”, the binding entry was “binds”.
